Experimental findings from the M2OR odorant receptor database are described below.

The chains behind the UniProt entries cited, without tags or fusion partners. Where a name states a change or a piece, a line headed by the entry shows the natural chain unless it says otherwise.
UniProt Q96RD3: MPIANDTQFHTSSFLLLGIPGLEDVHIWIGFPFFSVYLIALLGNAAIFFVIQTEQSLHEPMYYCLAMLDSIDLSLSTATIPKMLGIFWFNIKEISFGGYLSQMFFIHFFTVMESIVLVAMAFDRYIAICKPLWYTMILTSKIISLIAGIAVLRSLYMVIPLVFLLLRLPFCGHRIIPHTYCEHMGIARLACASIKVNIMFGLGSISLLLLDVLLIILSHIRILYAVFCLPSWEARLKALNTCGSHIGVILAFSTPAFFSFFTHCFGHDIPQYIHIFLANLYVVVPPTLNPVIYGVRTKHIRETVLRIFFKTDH
UniProt Q8NGK6: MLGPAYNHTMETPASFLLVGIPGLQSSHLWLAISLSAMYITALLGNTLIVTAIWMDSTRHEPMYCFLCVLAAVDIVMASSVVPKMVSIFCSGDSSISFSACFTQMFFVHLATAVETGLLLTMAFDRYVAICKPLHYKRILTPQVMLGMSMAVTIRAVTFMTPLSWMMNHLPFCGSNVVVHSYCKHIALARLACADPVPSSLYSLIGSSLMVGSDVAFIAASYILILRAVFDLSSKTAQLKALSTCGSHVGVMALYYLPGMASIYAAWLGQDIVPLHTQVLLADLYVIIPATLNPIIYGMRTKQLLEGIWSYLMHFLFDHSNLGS
UniProt Q8NH60: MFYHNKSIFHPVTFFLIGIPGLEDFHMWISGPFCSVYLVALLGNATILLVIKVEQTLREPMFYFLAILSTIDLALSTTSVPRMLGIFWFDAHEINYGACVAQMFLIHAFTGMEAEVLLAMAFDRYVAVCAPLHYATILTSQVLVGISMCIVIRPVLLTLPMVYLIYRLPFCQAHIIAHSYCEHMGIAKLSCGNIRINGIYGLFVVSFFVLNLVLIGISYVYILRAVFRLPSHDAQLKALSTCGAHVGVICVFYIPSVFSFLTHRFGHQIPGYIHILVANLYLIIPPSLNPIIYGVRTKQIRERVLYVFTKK

The entries are a selection whose mix differs from that of the whole data set. The calls were merged from several studies; some rest on single wells. The list shows a part of the results.

Holding throughout (conditions): stereoisomer not certain
For assay [1], the target named is OR52E6 (Homo sapiens) (UniProt Q96RD3). In a few lines:
(§1)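 Each entry records the cell line, G-protein, co-transfected protein and tags used. Methods varied with the source, often transient luciferase assays in mammalian cell lines. A receptor–molecule pair is called responsive (active) if the original authors judged its signal statistically different from baseline and non-responsive (inactive) otherwise.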

The target in assay [2] is T1, OR52H1 (Homo sapiens) (UniProt Q8NGJ2).
T1 sequence (whole entry): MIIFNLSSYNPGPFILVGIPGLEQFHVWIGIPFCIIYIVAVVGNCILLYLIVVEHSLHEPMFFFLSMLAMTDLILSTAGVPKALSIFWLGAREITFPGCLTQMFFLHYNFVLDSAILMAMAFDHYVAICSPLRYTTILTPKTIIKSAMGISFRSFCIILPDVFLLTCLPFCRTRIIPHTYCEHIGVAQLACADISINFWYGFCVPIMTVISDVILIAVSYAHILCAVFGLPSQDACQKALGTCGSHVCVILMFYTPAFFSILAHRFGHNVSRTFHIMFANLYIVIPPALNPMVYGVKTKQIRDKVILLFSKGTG
In a few lines:
as §1

In assay [3] the target is T2, OR52K1 (Homo sapiens) (UniProt Q8NGK4).
T2 sequence (whole entry): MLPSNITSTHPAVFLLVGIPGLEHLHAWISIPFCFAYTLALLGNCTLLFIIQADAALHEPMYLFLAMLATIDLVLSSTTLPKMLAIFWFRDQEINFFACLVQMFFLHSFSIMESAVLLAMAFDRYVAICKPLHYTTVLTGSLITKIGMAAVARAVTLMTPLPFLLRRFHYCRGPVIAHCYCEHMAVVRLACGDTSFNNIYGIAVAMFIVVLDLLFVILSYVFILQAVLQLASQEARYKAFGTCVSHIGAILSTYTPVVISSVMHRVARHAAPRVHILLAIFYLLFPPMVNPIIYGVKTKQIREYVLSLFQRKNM
In a few lines:
as §1

Assay [4] addresses T3, OR52K2 (Homo sapiens) (UniProt Q8NGK3).
T3 sequence (whole entry): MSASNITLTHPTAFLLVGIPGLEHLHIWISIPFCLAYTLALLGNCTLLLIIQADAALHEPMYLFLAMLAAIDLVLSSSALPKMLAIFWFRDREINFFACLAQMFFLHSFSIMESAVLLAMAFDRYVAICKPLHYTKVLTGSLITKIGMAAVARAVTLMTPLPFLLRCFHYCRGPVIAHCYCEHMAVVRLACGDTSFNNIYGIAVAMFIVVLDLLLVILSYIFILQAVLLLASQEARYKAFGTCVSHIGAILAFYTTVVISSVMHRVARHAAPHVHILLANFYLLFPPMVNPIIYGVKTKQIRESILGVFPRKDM
In a few lines:
as §1

The target of assay [5] is OR52I1 (Homo sapiens) (UniProt Q8NGK6). In a few lines: as §1
The target of assay [6] is T4, OR52I2 (Homo sapiens) (UniProt Q8NH67).
T4 sequence (whole entry): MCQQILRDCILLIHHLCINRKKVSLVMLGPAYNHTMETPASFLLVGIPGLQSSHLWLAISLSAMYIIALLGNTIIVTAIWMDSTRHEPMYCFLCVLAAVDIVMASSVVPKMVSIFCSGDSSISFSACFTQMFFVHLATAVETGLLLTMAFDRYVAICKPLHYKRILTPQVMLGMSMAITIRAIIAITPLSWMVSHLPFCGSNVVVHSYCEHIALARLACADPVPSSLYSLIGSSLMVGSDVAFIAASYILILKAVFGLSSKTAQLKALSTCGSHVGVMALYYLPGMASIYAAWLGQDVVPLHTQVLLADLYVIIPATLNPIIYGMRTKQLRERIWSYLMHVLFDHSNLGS
In a few lines: as §1

The target in assay [7] is OR52J3 (Homo sapiens) (UniProt Q8NH60). In a few lines:
as §1

Assay [8] deals with T5, OR52L1 (Homo sapiens) (UniProt Q8NGH7).
T5 sequence (whole entry): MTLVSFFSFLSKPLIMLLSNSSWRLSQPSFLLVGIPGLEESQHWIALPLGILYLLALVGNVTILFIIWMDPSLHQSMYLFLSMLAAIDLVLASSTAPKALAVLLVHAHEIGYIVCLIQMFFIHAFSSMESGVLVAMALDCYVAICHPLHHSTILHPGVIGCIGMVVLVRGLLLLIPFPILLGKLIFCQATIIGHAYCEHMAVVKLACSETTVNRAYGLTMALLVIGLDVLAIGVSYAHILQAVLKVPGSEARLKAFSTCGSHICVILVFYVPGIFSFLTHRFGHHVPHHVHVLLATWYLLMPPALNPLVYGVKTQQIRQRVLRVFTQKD
In a few lines:
as §1

Assay [9] deals with T6, OR52M1 (Homo sapiens) (UniProt Q8NGK5).
T6 sequence (whole entry): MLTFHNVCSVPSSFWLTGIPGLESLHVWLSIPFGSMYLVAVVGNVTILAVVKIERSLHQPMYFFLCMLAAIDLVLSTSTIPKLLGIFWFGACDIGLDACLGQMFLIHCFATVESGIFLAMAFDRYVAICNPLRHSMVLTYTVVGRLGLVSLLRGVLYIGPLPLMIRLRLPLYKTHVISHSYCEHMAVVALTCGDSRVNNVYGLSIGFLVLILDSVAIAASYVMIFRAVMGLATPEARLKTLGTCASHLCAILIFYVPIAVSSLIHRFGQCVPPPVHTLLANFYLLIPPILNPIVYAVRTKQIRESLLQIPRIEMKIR
In a few lines: as §1

`CC1COCc2cc3c(cc21)C(C)(C)C(C)C3(C)C` (stereo not drawn): the “odorant receptor agonist call” value in assay [1] and in assay [3] was “inactive” throughout. Moreover, the “odorant receptor agonist call” value in [2] and in assay [4] was “active” each time.
As to `CC(C)=CCCC(C)=CC=O`, the “odorant receptor agonist call” value in assay [1], in assay [3] and in [4] was “inactive” throughout. Also, the “odorant receptor agonist call” value in assay [2] is “active”.
As for `C=CC(C)(O)CCC=C(C)C` (stereo not drawn), the “odorant receptor agonist call” value in assay [1], in assay [3] and in assay [4] was “inactive” each time. The “odorant receptor agonist call” value in assay [2] was “active”.
Regarding `COc1ccccc1O`, the “odorant receptor agonist call” value in assay [1], in [2], in assay [3] and in [4] was “inactive” in each case.
For the compound `CCCCCCCC=O`, the “odorant receptor agonist call” value in [1], in assay [2], in assay [3] and in [4] was “inactive” each time.
`CCCC(=O)O`: the “odorant receptor agonist call” value in [1], in assay [6], in [7], in assay [3], in assay [4] and in assay [8] was “inactive” each time. Further, the “odorant receptor agonist call” value in assay [9] was “inactive”. Moreover, the “odorant receptor agonist call” value in assay [2] and in [5] was “active” in each case.
With `O=C1CCCCCCCCCCCC(=O)OCCO1`, the “odorant receptor agonist call” value in assay [1], in assay [2], in assay [3] and in assay [4] was “inactive” throughout.
Take `C=CCc1ccc(OC(C)=O)c(OC)c1`: the “odorant receptor agonist call” value in [1], in assay [3] and in assay [4] was “inactive” throughout. In [2], the “odorant receptor agonist call” value was “active”.
Consider `COc1cc(C=O)ccc1O`, for which the “odorant receptor agonist call” value in assay [1], in assay [2], in assay [3] and in [4] was “inactive” each time.
Take `COc1cc(C)ccc1O`: the “odorant receptor agonist call” value in [1], in assay [2], in assay [3] and in assay [4] was “inactive” throughout.
Turning to `CCCCCCCCOC(C)=O`, the “odorant receptor agonist call” value in assay [1], in assay [2], in assay [3] and in [4] was “inactive” throughout.
On to `CC(=O)OC1CC2CCC1(C)C2(C)C` (stereo not drawn), for which the “odorant receptor agonist call” value in assay [1], in assay [2], in assay [3] and in assay [4] was “inactive” each time.
Regarding `CCCCCCOC(=O)CCC`, the “odorant receptor agonist call” value in assay [1], in assay [2], in assay [3] and in assay [4] was “inactive” throughout.
With `CC(C)CCC(=O)O`, the “odorant receptor agonist call” value in [1], in assay [2], in [3] and in assay [4] was “inactive” throughout.
With `CC(=O)C(C)=O`, the “odorant receptor agonist call” value in assay [1], in [2], in [5], in assay [6], in assay [3] and in assay [4] was “inactive” in each case. The “odorant receptor agonist call” value in assay [8] and in [9] was “inactive” throughout. The “odorant receptor agonist call” value in assay [7] was “active”.
Consider `CC(C)CC(=O)O`, for which the “odorant receptor agonist call” value in assay [1], in [2], in assay [3] and in [4] was “inactive” each time.
Take `CCCCCC(=O)O`: the “odorant receptor agonist call” value in assay [1], in assay [2], in assay [3] and in [4] was “inactive” throughout.
